Reference: US20100233096A1, “METHOD TO PRODUCE HYPERPOLARISED CARBOXYLATES AND SULPHONATES” (priority 2006, published 2010)

Columns and labels:
[1] = Liquid state polarisation of 13C nuclei by liquid state 13C-NMR after DNP and dissolution

## O=[13C]([O-])O.[Cs+] [caesium ^13C-bicarbonate]
Example 7: 10 mM trityl radical, glycerol/water, no Gd-chelate, DNP 1.2 K, 3.35 T, 93.890 GHz, 3 hours
  solid state polarisation of the 13C nuclei: 70 integral/mmol ^13C
Example 8: as Example 7 plus 0.7 mM Gd-chelate of Example 4 (2.1 mM Gd3+)
  solid state polarisation of the 13C nuclei: 390 integral/mmol ^13C
[1]; Example 9: 12 mM trityl radical, 0.2 mM Gd-chelate (0.6 mM Gd3+), glycerol/water, DNP 1.2 K, 3.35 T, 93.890 GHz, 3 hours, dissolved to 10 mM, 400 MHz
  liquid state polarisation of the 13C nuclei: 18%

## CC(=O)[13C](=O)[O-].[Cs+] [caesium pyruvate, Caesium ^13C1-pyruvate]
[1]; Example 3: 7 molar aqueous solution, 14.5 mM trityl radical, no Gd-chelate, DNP 1.2 K, 3.35 T, 93.950 GHz, 2 hours, dissolved in 7 ml water with 100 mg/l EDTA, 13C-NMR at 400 MHz
  liquid state polarisation of the 13C nuclei: 15%
[1]; Example 5: about 14 mM trityl radical and 0.7 mM Gd-chelate of Example 4 (2.1 mM Gd3+), DNP 1.2 K, 3.35 T, 2 hours, dissolved in 7 ml water with 100 mg/l EDTA, 400 MHz
  liquid state polarisation of the 13C nuclei: 24%

## CC(=O)[13C](=O)[O-].[Na+] [sodium pyruvate, Sodium ^13C1-pyruvate]
[1]; Example 6: DNP and dissolution as Example 5 (trityl radical + Gd-chelate), then sodium charged ion exchange column, about 4-5 s, 400 MHz
  liquid state polarisation of the 13C nuclei: 17%

Read-outs that look alike come from different tables or passages of the source.
